Patent US8703825B2, “Compounds, use thereof as medicaments, and method of preparation thereof” (Universite de Lorraine, priority 2008, dated 2014)
At least one structure is not confirmed: it was looked up by name or label, or the drawing left a doubt.

How the values were obtained:
[1] = test system: Staphylococcus aureus ATCC 25923; experiment: MIC by microdilution in liquid medium (CLSI / CA-SFM); type: cell-based; conditions: S. aureus ATCC 25923, reference strain
Description: (§1) According to the joint recommendations: • of the “Comite de l′Antibiogramme de la Société Française de Microbiologie” (Antibiogram Committee of the French Society of Microbiology) (CA-SFM) [CA-SFM. Communique 2007 (Edition of January 2007). http://www.sfm.asso.fr] and, • of the “Clinical and Laboratory Standards Institute” (CLSI, formerly “National Committee for Clinical Laboratory Standards” or NCCLS) [NCCLS. 2003. Methods for dilution antimicrobial susceptibility tests for bacteria that grow aerobically; approved standard M7-A6, 6th ed. National Committee for Clinical Laboratory Standards, Wayne, Pa., USA.], five reference bacterial strains were used for the study: Escherichia coli ATCC 25922, Pseudomonas aeruginosa ATCC 27853, Staphylococcus aureus ATCC 25923 & ATCC 29213 and Enterococcus faecalis ATCC 29212.
(§2) The bacteria are cultivated either on Mueller-Hinton agar (Difco, 225250), or in Mueller-Hinton broth (Difco, 275730), at 35° C. […]
(§3) The minimum inhibitory concentrations (MIC) were determined by the standardized method of microdilution in liquid medium (96-well microplate, U-shaped bottom, Greiner), in Mueller-Hinton broth, with a final inoculum of 10^5-10^6 CFU/mL, depending on the bacterial species, in accordance with the recommendations of the CLSI. […]

[2] = test system: Staphylococcus aureus ATCC 29213; experiment: as above; type: cell-based; conditions: S. aureus ATCC 29213, reference strain
Description: as §1, §2, §3

SMILES: N=C(N)CCc1ccc(OCCCCCCCOc2ccc(CCC(=N)N)cc2)cc1 [compound 107, 1,7-bis(4-(2-(amidino)ethyl)phenoxy)heptane]
- MIC [1]: 4-8-16
- MIC [2]: 2-4-32
